PubChem BioAssay AID1159578, Peter MacCallum Cancer Centre – 2015
The deposit covers about 18,000 reagents; below is an unselected part. In the full data, about 1,030 (5.7%) are marked active. 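Inactive calls also include pools with fewer than 3300 nuclei, whose migration was not assessed.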 Raw values vary from plate to plate and are shown uncorrected. Further read-outs or replicates are left out here.

- Test: 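siRNA pools altering how lymphatic endothelial cells close a scratch wound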 (primary screen)
- Cells: human lymphatic endothelial cells
- Reagents: siRNA pool against human genes, 40 nM
- Timing: 48 h after transfection
- Read-out: 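Cells stained with dye and imaged after a scratch; covered wound area and nuclei counted, duplicates averaged, migration set against mock wells and turned into a robust z-score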
- Reading the numbers: migration robust z-score: higher = faster migration into the scratch; nuclei per well: higher = more cells in the well
- Hit rule: 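Pools averaging fewer than 3300 nuclei are never called; remaining pools count as changed when migration robust z lies outside -2 to 2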
- Meaning of the calls: active = migration changed; inactive = no migration change, or too few cells

The opening 2 records, ahead of the listing:
BNC2 (basonuclin zinc finger protein 2) → migration robust z-score = -0.32; nuclei per well, duplicate mean = 3406; activity call = inactive
SIX2 (SIX homeobox 2) → migration robust z-score = -0.83; nuclei per well, duplicate mean = 4608; activity call = inactive

The list itself, from the first entry:
BNC2 (basonuclin zinc finger protein 2) → migration robust z-score = -0.32; nuclei per well, duplicate mean = 3406; activity call = inactive
SIX2 (SIX homeobox 2) → migration robust z-score = -0.83; nuclei per well, duplicate mean = 4608; activity call = inactive
PRY2 (PTPN13 like Y-linked 2) → migration robust z-score = -1.98; nuclei per well, duplicate mean = 5187; activity call = inactive
LMNTD1 (lamin tail domain containing 1) → migration robust z-score = -0.23; nuclei per well, duplicate mean = 8038; activity call = inactive
KIAA1328 → migration robust z-score = -0.9; nuclei per well, duplicate mean = 5800; activity call = inactive
DCHS1 (dachsous cadherin-related 1) → migration robust z-score = 1.56; nuclei per well, duplicate mean = 3952; activity call = inactive
ARL11 (ARF like GTPase 11) → migration robust z-score = 2.83; nuclei per well, duplicate mean = 6242; activity call = active
ZNF560 (zinc finger protein 560) → migration robust z-score = 2.76; nuclei per well, duplicate mean = 8246; activity call = active
ZNF682 (zinc finger protein 682) → migration robust z-score = -0.18; nuclei per well, duplicate mean = 6123; activity call = inactive
SDS (serine dehydratase) → migration robust z-score = -0.18; nuclei per well, duplicate mean = 4683; activity call = inactive
C9orf50 (chromosome 9 open reading frame 50) → migration robust z-score = -1.38; nuclei per well, duplicate mean = 6644; activity call = inactive
PDHB (pyruvate dehydrogenase E1 subunit beta) → migration robust z-score = -0.6; nuclei per well, duplicate mean = 4884; activity call = inactive
CDK2 (cyclin dependent kinase 2) → migration robust z-score = 0.47; nuclei per well, duplicate mean = 5114; activity call = inactive
ZNF185 (zinc finger protein 185 with LIM domain) → migration robust z-score = 0.54; nuclei per well, duplicate mean = 5204; activity call = inactive
CTDSP1 (CTD small phosphatase 1) → migration robust z-score = 2; nuclei per well, duplicate mean = 6370; activity call = inactive
B4GALNT4 (beta-1,4-N-acetyl-galactosaminyltransferase 4) → migration robust z-score = 0.78; nuclei per well, duplicate mean = 6124; activity call = inactive
SLC7A4 → migration robust z-score = 0.44; nuclei per well, duplicate mean = 6136; activity call = inactive
CNTNAP2 (contactin associated protein 2) → migration robust z-score = 0.91; nuclei per well, duplicate mean = 7080; activity call = inactive
RABGAP1 (RAB GTPase activating protein 1) → migration robust z-score = 0.42; nuclei per well, duplicate mean = 5000; activity call = inactive
SLC19A1 → migration robust z-score = -0.31; nuclei per well, duplicate mean = 6198; activity call = inactive
ATP6V1G3 (ATPase H+ transporting V1 subunit G3) → migration robust z-score = 0.34; nuclei per well, duplicate mean = 5209; activity call = inactive
PRKX (protein kinase cAMP-dependent X-linked catalytic subunit) → migration robust z-score = 0.08; nuclei per well, duplicate mean = 4920; activity call = inactive
CORO1A (coronin 1A) → migration robust z-score = 1.46; nuclei per well, duplicate mean = 5827; activity call = inactive
LAMTOR3 (late endosomal/lysosomal adaptor, MAPK and MTOR activator 3) → migration robust z-score = 0.32; nuclei per well, duplicate mean = 6271; activity call = inactive
GCM2 (GCM transcription factor 2) → migration robust z-score = 1.82; nuclei per well, duplicate mean = 6089; activity call = inactive
BCL2L2 (BCL2 like 2) → migration robust z-score = -0.08; nuclei per well, duplicate mean = 4964; activity call = inactive
AIMP2 → migration robust z-score = -1.86; nuclei per well, duplicate mean = 5394; activity call = inactive
